In the supplement of paper PMC8728848:
This is one part of the list.

Columns and labels:
Experiment in all cases: glycan array binding signal (z-score within array); higher = stronger binding
Conditions in all cases: glycan notation: IUPAC condensed, linker removed
[1] = biological target: Fuc(a1-2)[Gal(a1-3)]Gal(b1-4)GlcNAc(b1-2)Man(a1-3)[Fuc(a1-2)[Gal(a1-3)]Gal(b1-4)GlcNAc(b1-2)Man(a1-6)]Man(b1-4)GlcNAc(b1-4)[Fuc(a1-6)]GlcNAc
Procedure, shortened: (§1)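 The Consortium for Functional Glycomics database supplied 3228 glycan arrays, of which those lacking an available protein sequence were dropped. The binding signal, a within-array Z-score, was averaged across arrays of the same protein sequence and across linkers. Negative scores can be read as non-binding.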

[2] = biological target: Fuc(a1-2)[Gal(a1-3)]Gal(b1-4)GlcNAc(b1-3)GalNAc
Procedure, shortened: as §1

[3] = biological target: Fuc(a1-2)[Gal(a1-3)]Gal(b1-4)GlcNAc(b1-3)[Fuc(a1-2)[Gal(a1-3)]Gal(b1-4)GlcNAc(b1-6)]GalNAc
Procedure, shortened: as §1

[4] = biological target: Fuc(a1-2)[Gal(a1-3)]Gal(b1-4)GlcNAc(b1-6)GalNAc
Procedure, shortened: as §1

[5] = biological target: Fuc(a1-2)[Gal(a1-3)]Gal(b1-4)[Fuc(a1-3)]Glc
Procedure, shortened: as §1

[6] = biological target: Fuc(a1-2)[Gal(a1-3)]Gal(b1-4)[Fuc(a1-3)]GlcNAc
Procedure, shortened: as §1

[7] = biological target: Fuc(a1-2)[Gal(a1-3)]Gal(b1-4)[Fuc(a1-3)]GlcNAc(b1-3)GalNAc
Procedure, shortened: as §1

[8] = biological target: Fuc(a1-2)[Gal(a1-4)]Gal(b1-4)GlcNAc
Procedure, shortened: as §1

[9] = biological target: Fuc(a1-2)[GalNAc(a1-3)]Gal
Procedure, shortened: as §1

[10] = biological target: Fuc(a1-2)[GalNAc(a1-3)]Gal(b1-3)GalNAc(a1-3)[Fuc(a1-2)]Gal(b1-4)GlcNAc
Procedure, shortened: as §1

[11] = biological target: Fuc(a1-2)[GalNAc(a1-3)]Gal(b1-3)GalNAc(b1-3)Gal(a1-4)Gal(b1-4)Glc
Procedure, shortened: as §1

[12] = biological target: Fuc(a1-2)[GalNAc(a1-3)]Gal(b1-3)GlcNAc
Procedure, shortened: as §1

[13] = biological target: Fuc(a1-2)[GalNAc(a1-3)]Gal(b1-3)GlcNAc(b1-2)Man(a1-3)[Fuc(a1-2)[GalNAc(a1-3)]Gal(b1-3)GlcNAc(b1-2)Man(a1-6)]Man(b1-4)GlcNAc(b1-4)GlcNAc
Procedure, shortened: as §1

[14] = biological target: Fuc(a1-2)[GalNAc(a1-3)]Gal(b1-3)GlcNAc(b1-2)Man(a1-3)[Fuc(a1-2)[GalNAc(a1-3)]Gal(b1-3)GlcNAc(b1-2)Man(a1-6)]Man(b1-4)GlcNAc(b1-4)[Fuc(a1-6)]GlcNAc
Procedure, shortened: as §1

[15] = biological target: Fuc(a1-2)[GalNAc(a1-3)]Gal(b1-3)GlcNAc(b1-3)GalNAc
Procedure, shortened: as §1

[16] = biological target: Fuc(a1-2)[GalNAc(a1-3)]Gal(b1-3)GlcNAc(b1-6)GalNAc
Procedure, shortened: as §1

[17] = biological target: Fuc(a1-2)[GalNAc(a1-3)]Gal(b1-4)Glc
Procedure, shortened: as §1

[18] = biological target: Fuc(a1-2)[GalNAc(a1-3)]Gal(b1-4)GlcNAc
Procedure, shortened: as §1

[19] = biological target: Fuc(a1-2)[GalNAc(a1-3)]Gal(b1-4)GlcNAc(b1-2)Man
Procedure, shortened: as §1

[20] = biological target: Fuc(a1-2)[GalNAc(a1-3)]Gal(b1-4)GlcNAc(b1-2)Man(a1-3)[Fuc(a1-2)[GalNAc(a1-3)]Gal(b1-4)GlcNAc(b1-2)Man(a1-6)]Man(b1-4)GlcNAc(b1-4)GlcNAc
Procedure, shortened: as §1

[21] = biological target: Fuc(a1-2)[GalNAc(a1-3)]Gal(b1-4)GlcNAc(b1-2)Man(a1-3)[Fuc(a1-2)[GalNAc(a1-3)]Gal(b1-4)GlcNAc(b1-2)Man(a1-6)]Man(b1-4)GlcNAc(b1-4)[Fuc(a1-6)]GlcNAc
Procedure, shortened: as §1

[22] = biological target: Fuc(a1-2)[GalNAc(a1-3)]Gal(b1-4)GlcNAc(b1-3)Gal(b1-4)GlcNAc
Procedure, shortened: as §1

B1: PX14379D-pdi-530-26-530 (Parabacteroides distasonis) (protein)
chain: DETVYDKLPADDFGQSTAELNALIGNSHNTMKKFWTEYMHLSECSGSMAVTPTRRGGDWYDGGQYREIYMHTWTSQTSRVKSAWKAATEAIGTCNEAIRKLQNSEILTEEEKAQDVADLRGVRAFWIYVMMDYWGNIPLLTEFHPTDKVFPGNSSRQEVFDWLIQEVEEIKDICPPATTENYGSFTQGAAYSLLAKLYLNAEAWGVTFSGNAYQKVIDNCDKVMAMGYILEPNWKDNFSVTNENSKEAILAATFSSSDTGNDGNVKNELHNNTLHYKDYLSLGITASGTWNGICAQPEYVRLFDEEDARLDGTFLTGLMIDKSTGKPIMTDHNNELNHTIDVNMIPGMEYDGTNWSAVEQHDGARCFKWEFASDLTSSMGNDFHIFRLADIYLMKAEALLRGGGSVSEATALVNTIRERGYGNSDHNYATVTLKEVQLERRLELAWEVYSRQDDIRFGCFTTGMWPQSNCERKADDYLKLLPVSQDAWQVNPNLKQNPGYAAFSK
glycan array binding signal (z-score) [1]: -0.093
glycan array binding signal (z-score) [2]: -0.332
glycan array binding signal (z-score) [3]: -0.331
glycan array binding signal (z-score) [4]: -0.679
glycan array binding signal (z-score) [5]: 0.137
glycan array binding signal (z-score) [6]: 0.487
glycan array binding signal (z-score) [7]: -0.46
glycan array binding signal (z-score) [8]: 0.172
glycan array binding signal (z-score) [9]: -0.177
glycan array binding signal (z-score) [10]: -1.03
glycan array binding signal (z-score) [11]: 0.364
glycan array binding signal (z-score) [12]: -0.423
glycan array binding signal (z-score) [13]: 0.075
glycan array binding signal (z-score) [14]: -0.214
glycan array binding signal (z-score) [15]: -0.428
glycan array binding signal (z-score) [16]: 0.43
glycan array binding signal (z-score) [17]: -0.433
glycan array binding signal (z-score) [18]: -0.757
glycan array binding signal (z-score) [19]: -0.631
glycan array binding signal (z-score) [20]: 0.083
glycan array binding signal (z-score) [21]: -0.211
glycan array binding signal (z-score) [22]: -0.668
